# Source: the supplement of paper PMC7666118
# Chains of the proteins cited; added tags and fusions are not shown. Lines headed by an entry give the natural chain unless they say otherwise; changes in a name come on top.
# UniProt Q96EP0: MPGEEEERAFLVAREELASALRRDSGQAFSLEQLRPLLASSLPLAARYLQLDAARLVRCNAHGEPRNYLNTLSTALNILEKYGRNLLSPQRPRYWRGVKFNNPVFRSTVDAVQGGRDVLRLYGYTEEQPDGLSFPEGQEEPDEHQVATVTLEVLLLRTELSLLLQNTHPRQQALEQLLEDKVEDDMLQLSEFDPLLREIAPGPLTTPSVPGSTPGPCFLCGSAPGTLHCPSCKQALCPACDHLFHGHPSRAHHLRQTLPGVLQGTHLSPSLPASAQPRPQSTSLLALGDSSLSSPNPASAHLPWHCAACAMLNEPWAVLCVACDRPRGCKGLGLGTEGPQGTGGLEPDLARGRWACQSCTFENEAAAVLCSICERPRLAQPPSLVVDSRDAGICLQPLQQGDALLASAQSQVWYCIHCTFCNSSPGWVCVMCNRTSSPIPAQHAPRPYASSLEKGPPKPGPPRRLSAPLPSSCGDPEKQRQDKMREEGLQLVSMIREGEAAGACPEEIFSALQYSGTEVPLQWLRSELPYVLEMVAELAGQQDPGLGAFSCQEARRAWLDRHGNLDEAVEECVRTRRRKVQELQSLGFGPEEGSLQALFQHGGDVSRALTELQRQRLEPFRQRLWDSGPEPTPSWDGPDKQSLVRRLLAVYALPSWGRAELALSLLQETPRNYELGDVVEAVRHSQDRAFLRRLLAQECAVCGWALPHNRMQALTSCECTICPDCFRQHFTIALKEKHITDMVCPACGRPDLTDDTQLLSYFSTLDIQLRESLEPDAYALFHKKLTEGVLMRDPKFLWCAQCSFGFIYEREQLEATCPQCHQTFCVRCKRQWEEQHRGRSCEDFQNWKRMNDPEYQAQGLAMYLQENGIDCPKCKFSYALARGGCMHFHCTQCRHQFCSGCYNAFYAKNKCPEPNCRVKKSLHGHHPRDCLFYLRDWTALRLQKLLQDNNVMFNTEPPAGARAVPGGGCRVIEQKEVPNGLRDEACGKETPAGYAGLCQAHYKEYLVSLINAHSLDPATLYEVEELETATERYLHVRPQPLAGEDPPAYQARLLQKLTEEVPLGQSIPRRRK
# UniProt P23443: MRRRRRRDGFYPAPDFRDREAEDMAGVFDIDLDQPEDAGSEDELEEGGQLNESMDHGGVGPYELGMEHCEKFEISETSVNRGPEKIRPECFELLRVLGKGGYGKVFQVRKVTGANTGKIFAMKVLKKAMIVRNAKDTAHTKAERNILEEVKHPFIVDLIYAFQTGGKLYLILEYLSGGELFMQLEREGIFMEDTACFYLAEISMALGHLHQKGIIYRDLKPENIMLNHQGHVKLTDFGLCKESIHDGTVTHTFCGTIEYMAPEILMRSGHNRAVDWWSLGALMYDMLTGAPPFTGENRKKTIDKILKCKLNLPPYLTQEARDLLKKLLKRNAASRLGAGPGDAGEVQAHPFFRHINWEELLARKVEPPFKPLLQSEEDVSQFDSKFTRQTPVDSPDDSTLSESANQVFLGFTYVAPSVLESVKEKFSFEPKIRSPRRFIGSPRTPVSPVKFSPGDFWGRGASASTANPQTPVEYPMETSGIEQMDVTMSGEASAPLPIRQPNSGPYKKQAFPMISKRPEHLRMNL
# UniProt Q2KHR2: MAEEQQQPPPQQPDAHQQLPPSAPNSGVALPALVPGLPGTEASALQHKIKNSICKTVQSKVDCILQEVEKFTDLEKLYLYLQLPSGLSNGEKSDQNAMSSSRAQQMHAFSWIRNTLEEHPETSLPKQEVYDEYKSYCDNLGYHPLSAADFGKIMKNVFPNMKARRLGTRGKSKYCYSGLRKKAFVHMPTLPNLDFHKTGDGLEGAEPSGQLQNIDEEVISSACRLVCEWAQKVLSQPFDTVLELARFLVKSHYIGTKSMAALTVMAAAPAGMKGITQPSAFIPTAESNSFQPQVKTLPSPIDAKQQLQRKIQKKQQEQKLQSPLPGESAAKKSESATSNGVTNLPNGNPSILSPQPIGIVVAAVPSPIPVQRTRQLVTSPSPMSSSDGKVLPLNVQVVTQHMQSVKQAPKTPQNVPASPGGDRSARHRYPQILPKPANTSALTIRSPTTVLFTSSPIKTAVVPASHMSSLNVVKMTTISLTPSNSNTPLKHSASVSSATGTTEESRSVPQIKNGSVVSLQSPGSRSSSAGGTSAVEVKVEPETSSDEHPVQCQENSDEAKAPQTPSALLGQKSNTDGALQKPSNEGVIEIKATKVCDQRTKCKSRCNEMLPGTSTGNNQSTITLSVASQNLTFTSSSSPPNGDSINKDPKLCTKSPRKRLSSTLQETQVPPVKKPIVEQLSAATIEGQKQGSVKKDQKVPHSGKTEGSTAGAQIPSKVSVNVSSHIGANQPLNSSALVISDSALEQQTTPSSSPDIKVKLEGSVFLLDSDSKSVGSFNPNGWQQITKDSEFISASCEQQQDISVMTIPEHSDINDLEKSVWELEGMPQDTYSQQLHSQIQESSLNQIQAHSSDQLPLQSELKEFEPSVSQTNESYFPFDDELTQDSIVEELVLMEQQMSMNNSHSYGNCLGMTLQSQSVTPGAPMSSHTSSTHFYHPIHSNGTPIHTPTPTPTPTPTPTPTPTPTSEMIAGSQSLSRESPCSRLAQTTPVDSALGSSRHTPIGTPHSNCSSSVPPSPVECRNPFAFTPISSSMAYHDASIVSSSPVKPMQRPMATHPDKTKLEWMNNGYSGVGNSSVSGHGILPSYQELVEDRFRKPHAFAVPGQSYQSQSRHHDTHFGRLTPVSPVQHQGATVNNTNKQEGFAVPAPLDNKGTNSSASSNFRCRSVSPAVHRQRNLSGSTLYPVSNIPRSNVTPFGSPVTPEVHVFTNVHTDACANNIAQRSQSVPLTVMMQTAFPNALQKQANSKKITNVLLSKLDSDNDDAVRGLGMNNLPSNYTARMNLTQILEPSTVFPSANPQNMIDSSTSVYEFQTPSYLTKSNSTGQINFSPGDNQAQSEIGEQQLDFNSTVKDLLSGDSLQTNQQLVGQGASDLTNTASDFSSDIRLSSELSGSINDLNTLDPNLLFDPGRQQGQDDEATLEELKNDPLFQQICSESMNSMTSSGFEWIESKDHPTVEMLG
# UniProt P62877, whole entry, looked up: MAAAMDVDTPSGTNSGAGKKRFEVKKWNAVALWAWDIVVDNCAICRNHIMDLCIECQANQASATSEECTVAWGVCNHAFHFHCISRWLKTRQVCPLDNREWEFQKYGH
# UniProt A6NED2: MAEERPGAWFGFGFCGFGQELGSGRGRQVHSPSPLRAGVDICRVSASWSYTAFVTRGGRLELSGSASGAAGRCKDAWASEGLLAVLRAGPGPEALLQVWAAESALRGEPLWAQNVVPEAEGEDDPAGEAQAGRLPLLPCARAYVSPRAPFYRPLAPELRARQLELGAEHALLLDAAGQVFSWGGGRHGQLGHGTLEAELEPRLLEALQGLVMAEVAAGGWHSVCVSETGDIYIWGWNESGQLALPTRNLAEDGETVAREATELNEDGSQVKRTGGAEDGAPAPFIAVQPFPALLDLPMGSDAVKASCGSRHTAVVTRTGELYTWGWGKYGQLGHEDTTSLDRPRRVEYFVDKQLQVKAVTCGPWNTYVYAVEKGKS
# UniProt O75150, whole entry: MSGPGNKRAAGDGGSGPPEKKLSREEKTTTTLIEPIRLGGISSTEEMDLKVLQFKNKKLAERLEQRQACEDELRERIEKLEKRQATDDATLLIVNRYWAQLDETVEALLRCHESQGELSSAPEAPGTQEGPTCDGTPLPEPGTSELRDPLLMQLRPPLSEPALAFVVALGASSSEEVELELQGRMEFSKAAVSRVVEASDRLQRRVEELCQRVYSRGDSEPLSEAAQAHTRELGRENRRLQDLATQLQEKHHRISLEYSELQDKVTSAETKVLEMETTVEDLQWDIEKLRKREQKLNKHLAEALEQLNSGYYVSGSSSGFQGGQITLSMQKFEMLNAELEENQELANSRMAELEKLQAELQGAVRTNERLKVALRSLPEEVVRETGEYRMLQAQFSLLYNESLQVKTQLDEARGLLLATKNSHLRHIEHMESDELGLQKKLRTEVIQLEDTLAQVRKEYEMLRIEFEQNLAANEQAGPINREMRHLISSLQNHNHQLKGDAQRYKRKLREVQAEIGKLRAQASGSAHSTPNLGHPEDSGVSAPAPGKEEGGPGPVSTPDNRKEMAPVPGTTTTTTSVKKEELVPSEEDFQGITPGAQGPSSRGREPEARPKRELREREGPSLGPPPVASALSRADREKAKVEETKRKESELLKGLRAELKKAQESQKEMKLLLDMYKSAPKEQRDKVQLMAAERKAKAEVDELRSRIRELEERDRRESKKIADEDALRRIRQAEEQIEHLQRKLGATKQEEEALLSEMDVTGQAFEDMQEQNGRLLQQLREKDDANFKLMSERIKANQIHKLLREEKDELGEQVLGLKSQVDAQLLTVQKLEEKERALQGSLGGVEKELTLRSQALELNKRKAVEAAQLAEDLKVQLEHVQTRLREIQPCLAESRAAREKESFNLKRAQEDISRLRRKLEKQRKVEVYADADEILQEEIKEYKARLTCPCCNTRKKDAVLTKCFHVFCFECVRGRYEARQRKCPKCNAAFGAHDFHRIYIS
# UniProt Q92766: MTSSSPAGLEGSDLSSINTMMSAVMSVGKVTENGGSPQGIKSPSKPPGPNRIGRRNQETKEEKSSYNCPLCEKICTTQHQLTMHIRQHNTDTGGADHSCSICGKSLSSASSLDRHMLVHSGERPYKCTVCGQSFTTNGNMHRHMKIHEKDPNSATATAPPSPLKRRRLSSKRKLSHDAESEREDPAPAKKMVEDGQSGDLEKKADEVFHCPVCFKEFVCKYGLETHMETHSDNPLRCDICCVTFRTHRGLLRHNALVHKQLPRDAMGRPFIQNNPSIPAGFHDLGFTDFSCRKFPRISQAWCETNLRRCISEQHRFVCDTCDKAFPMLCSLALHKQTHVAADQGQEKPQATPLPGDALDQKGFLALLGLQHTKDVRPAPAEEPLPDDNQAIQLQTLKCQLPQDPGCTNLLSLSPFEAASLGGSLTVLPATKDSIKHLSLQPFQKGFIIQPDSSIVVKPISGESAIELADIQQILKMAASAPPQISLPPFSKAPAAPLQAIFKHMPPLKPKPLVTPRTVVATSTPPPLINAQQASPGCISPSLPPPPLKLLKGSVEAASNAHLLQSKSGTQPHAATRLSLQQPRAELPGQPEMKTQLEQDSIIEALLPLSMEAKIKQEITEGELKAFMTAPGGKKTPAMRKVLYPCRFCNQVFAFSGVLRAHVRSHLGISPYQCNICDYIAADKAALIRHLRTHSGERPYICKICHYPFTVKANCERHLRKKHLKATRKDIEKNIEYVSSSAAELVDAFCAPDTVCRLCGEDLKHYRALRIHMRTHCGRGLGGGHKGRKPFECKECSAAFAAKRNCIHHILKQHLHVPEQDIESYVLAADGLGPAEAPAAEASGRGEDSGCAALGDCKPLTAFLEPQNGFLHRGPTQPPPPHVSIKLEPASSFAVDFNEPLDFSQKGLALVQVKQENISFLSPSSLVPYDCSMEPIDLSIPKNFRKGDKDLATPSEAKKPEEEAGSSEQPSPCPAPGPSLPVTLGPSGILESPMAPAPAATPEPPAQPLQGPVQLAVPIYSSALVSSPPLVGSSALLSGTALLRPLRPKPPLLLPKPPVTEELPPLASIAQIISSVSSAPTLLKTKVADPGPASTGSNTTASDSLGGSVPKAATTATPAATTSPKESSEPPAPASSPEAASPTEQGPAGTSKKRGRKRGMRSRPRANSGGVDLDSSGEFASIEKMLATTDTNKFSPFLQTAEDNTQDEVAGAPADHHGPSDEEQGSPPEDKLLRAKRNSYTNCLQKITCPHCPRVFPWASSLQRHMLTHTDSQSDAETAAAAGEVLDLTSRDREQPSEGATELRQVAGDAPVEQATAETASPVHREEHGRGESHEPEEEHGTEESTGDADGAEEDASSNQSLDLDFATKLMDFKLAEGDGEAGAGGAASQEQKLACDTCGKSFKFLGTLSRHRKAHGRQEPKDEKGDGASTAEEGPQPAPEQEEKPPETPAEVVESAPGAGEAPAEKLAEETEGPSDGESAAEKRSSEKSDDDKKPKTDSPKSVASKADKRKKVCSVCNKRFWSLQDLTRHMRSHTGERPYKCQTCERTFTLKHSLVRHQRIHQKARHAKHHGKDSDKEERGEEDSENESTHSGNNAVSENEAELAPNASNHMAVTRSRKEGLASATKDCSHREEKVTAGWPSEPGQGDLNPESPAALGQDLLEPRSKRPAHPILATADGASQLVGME
# UniProt Q6NW29: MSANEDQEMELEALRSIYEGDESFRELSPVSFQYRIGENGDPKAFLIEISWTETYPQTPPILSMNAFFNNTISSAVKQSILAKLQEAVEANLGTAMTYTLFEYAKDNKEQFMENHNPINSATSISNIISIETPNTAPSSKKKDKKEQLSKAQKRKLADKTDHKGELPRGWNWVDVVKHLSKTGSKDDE
# The other results are listed elsewhere or left out.
# Compound: COc1ccc(Cn2ccc3ccc(C(=O)NO)cc32)cc1
# Assay: dose-dependent thermal stabilisation call (2D-TPP, DLPTP, 10% FDR) (binary (1 = stabilised)); higher = stabilised by the compound
# Conditions: system: HL-60 intact cells; concentration range 0.04-10 µM
row,Target,dose-dependent thermal stabilisation call
1,RPL38 (UniProt P63173),inactive: 0
2,RNF31 (UniProt Q96EP0),inactive: 0
3,RHBDD2 (UniProt Q6NTF9),inactive: 0
4,RNF34 (UniProt Q969K3),inactive: 0
5,RPS6KB1 (UniProt P23443),inactive: 0
6,RPS4X (UniProt P62701),inactive: 0
7,RPL28 (UniProt P46779),inactive: 0
8,RHOF (UniProt Q9HBH0),inactive: 0
9,RFX7 (UniProt Q2KHR2),inactive: 0
10,RPS12 (UniProt P25398),inactive: 0
11,REEP4 (UniProt Q9H6H4),inactive: 0
12,RBX1 (UniProt P62877),inactive: 0
13,SAMD4B (UniProt Q5PRF9),inactive: 0
14,RNF103 (UniProt O00237),inactive: 0
15,RCCD1 (UniProt A6NED2),inactive: 0
16,RNF40 (UniProt O75150),inactive: 0
17,RGP1 (UniProt Q92546),inactive: 0
18,SAMSN1 (UniProt Q9NSI8),inactive: 0
19,RFT1 (UniProt Q96AA3),inactive: 0

row,Target,dose-dependent thermal stabilisation call
1,RPP30 (UniProt P78346),inactive: 0
2,RDH13 (UniProt Q8NBN7),inactive: 0
3,RTTN (UniProt Q86VV8),inactive: 0
4,RILPL2 (UniProt Q969X0),inactive: 0
5,RHOA (UniProt P61586),inactive: 0
6,RBMX (UniProt P38159),inactive: 0
7,RREB1 (UniProt Q92766),inactive: 0
8,RFTN1 (UniProt Q14699),inactive: 0
9,REPS1 (UniProt Q96D71),inactive: 0
10,RECQL5 (UniProt O94762),inactive: 0
11,RNF123 (UniProt Q5XPI4),inactive: 0
12,SAPS2 (UniProt O75170),inactive: 0
13,RPS5 (UniProt P46782),inactive: 0
14,RWDD4A (UniProt Q6NW29),inactive: 0
15,RFFL (UniProt Q8WZ73),inactive: 0
16,RPUSD3 (UniProt Q6P087),inactive: 0
17,RPS21 (UniProt P63220),active: 1
18,SAMD1 (UniProt Q6SPF0),inactive: 0

# Nine entries from above in a different format:
row	Target	dose-dependent thermal stabilisation call
4	RILPL2 (UniProt Q969X0)	inactive: 0
5	RHOA (UniProt P61586)	inactive: 0
6	RBMX (UniProt P38159)	inactive: 0
7	RREB1 (UniProt Q92766)	inactive: 0
8	RFTN1 (UniProt Q14699)	inactive: 0
9	REPS1 (UniProt Q96D71)	inactive: 0
10	RECQL5 (UniProt O94762)	inactive: 0
11	RNF123 (UniProt Q5XPI4)	inactive: 0
12	SAPS2 (UniProt O75170)	inactive: 0
